Measured values taken from paper doi:10.1101/2025.01.24.634708.
No constants are given. Whether binding was seen depends on the method and setting. Binding seen in cells or lysates may run through a third protein. Here binding means that the protein was enriched with, or labelled near, the bait; the list need not be complete. For some of these results: Sequences can lack the tags named with a protein.

Sequences of proteins named here, by UniProt entry; tags and fusion partners are left off.
UniProt Q13395: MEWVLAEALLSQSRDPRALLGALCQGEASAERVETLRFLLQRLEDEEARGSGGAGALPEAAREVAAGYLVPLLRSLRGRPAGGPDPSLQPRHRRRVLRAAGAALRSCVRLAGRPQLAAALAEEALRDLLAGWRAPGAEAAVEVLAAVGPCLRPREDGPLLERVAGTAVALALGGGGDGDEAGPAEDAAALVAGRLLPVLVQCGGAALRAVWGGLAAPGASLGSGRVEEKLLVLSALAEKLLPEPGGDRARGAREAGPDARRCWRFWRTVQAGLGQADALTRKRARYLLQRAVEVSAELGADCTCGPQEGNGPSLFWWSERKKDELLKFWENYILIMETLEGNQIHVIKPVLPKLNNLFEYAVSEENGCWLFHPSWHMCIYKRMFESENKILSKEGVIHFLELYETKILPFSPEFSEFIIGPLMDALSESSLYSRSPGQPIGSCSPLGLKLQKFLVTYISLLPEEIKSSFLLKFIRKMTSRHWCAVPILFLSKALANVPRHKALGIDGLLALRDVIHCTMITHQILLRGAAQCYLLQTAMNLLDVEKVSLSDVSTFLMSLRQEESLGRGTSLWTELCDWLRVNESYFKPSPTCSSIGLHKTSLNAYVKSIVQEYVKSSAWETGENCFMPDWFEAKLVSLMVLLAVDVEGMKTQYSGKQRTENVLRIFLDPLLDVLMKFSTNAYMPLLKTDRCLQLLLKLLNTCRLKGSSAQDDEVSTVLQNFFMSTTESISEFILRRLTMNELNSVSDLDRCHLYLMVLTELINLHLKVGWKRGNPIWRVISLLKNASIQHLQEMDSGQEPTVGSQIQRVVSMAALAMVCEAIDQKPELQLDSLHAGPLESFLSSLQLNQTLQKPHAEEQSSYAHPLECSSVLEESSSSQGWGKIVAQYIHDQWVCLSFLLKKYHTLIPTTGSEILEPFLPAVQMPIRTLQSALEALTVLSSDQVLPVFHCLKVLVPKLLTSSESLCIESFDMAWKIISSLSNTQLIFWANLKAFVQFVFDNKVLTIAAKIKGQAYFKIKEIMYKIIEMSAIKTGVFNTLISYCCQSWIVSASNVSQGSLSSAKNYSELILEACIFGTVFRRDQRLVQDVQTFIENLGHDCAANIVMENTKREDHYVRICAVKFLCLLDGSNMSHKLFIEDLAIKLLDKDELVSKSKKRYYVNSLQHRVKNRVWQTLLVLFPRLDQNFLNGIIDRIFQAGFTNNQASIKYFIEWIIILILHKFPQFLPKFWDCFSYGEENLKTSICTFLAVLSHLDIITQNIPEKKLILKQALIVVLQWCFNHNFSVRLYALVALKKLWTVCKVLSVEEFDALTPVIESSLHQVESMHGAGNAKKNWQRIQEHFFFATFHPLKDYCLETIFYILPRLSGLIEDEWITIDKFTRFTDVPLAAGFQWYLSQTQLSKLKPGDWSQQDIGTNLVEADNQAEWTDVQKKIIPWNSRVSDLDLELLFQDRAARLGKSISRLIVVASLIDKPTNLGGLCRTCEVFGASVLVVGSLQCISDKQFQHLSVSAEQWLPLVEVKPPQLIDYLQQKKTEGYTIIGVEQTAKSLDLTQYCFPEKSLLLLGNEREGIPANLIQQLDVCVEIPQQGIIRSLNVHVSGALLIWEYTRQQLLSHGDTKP

T1: ZBTB2 with a C-terminal FLAG and HA tag (human (cDNA from Jurkat cells)) (UniProt Q8N680)
T1 sequence: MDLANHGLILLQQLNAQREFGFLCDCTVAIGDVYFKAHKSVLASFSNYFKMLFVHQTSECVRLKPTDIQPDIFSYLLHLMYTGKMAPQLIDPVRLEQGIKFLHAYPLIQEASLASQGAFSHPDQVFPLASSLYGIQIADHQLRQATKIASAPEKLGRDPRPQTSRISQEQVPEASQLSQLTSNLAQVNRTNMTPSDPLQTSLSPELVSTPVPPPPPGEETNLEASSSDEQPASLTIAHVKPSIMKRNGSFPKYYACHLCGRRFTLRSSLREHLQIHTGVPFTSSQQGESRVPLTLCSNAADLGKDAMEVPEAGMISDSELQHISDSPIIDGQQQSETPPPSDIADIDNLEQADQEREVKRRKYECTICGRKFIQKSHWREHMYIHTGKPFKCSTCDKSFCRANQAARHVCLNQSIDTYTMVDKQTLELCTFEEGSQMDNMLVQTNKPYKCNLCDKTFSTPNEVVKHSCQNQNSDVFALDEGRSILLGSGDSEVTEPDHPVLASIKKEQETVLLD

T2: ZNF639 with a C-terminal FLAG and HA tag (human (cDNA from Jurkat cells)) (UniProt Q9UID6)
T2 sequence: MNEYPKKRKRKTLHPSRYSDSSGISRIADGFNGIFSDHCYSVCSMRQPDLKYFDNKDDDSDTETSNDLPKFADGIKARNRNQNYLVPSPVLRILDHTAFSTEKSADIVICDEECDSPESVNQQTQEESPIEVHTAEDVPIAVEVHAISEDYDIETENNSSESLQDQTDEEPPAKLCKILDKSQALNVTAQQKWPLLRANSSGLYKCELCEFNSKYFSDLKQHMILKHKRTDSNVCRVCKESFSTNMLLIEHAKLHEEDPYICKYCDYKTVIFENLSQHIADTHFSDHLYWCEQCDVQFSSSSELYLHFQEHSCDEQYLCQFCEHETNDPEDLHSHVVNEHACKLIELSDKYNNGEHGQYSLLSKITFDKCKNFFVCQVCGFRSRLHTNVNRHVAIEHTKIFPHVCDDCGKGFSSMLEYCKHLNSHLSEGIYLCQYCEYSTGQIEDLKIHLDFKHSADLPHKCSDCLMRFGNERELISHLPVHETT

T3: ZBTB25 with a C-terminal FLAG and HA tag (human (cDNA from Jurkat cells)) (UniProt P24278)
T3 sequence: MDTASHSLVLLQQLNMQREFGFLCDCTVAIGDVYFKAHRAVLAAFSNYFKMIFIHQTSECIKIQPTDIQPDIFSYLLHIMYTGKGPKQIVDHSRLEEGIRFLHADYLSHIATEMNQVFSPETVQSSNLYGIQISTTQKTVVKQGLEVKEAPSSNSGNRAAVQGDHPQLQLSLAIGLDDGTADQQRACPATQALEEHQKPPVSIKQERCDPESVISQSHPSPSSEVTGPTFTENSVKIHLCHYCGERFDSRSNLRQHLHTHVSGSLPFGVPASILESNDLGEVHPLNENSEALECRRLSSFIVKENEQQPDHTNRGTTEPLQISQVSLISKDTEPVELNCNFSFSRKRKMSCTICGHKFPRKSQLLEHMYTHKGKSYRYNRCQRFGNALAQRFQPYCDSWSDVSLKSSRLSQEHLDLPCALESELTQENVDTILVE

B1: ZBTB25 (protein, UniProt P24278 1-435)
chain: MDTASHSLVLLQQLNMQREFGFLCDCTVAIGDVYFKAHRAVLAAFSNYFKMIFIHQTSECIKIQPTDIQPDIFSYLLHIMYTGKGPKQIVDHSRLEEGIRFLHADYLSHIATEMNQVFSPETVQSSNLYGIQISTTQKTVVKQGLEVKEAPSSNSGNRAAVQGDHPQLQLSLAIGLDDGTADQQRACPATQALEEHQKPPVSIKQERCDPESVISQSHPSPSSEVTGPTFTENSVKIHLCHYCGERFDSRSNLRQHLHTHVSGSLPFGVPASILESNDLGEVHPLNENSEALECRRLSSFIVKENEQQPDHTNRGTTEPLQISQVSLISKDTEPVELNCNFSFSRKRKMSCTICGHKFPRKSQLLEHMYTHKGKSYRYNRCQRFGNALAQRFQPYCDSWSDVSLKSSRLSQEHLDLPCALESELTQENVDTILVE
B2: ZBTB2 (protein, UniProt Q8N680 1-514)
chain: MDLANHGLILLQQLNAQREFGFLCDCTVAIGDVYFKAHKSVLASFSNYFKMLFVHQTSECVRLKPTDIQPDIFSYLLHLMYTGKMAPQLIDPVRLEQGIKFLHAYPLIQEASLASQGAFSHPDQVFPLASSLYGIQIADHQLRQATKIASAPEKLGRDPRPQTSRISQEQVPEASQLSQLTSNLAQVNRTNMTPSDPLQTSLSPELVSTPVPPPPPGEETNLEASSSDEQPASLTIAHVKPSIMKRNGSFPKYYACHLCGRRFTLRSSLREHLQIHTGVPFTSSQQGESRVPLTLCSNAADLGKDAMEVPEAGMISDSELQHISDSPIIDGQQQSETPPPSDIADIDNLEQADQEREVKRRKYECTICGRKFIQKSHWREHMYIHTGKPFKCSTCDKSFCRANQAARHVCLNQSIDTYTMVDKQTLELCTFEEGSQMDNMLVQTNKPYKCNLCDKTFSTPNEVVKHSCQNQNSDVFALDEGRSILLGSGDSEVTEPDHPVLASIKKEQETVLLD
B3: ZNF639 (protein, UniProt Q9UID6 1-485)
chain: MNEYPKKRKRKTLHPSRYSDSSGISRIADGFNGIFSDHCYSVCSMRQPDLKYFDNKDDDSDTETSNDLPKFADGIKARNRNQNYLVPSPVLRILDHTAFSTEKSADIVICDEECDSPESVNQQTQEESPIEVHTAEDVPIAVEVHAISEDYDIETENNSSESLQDQTDEEPPAKLCKILDKSQALNVTAQQKWPLLRANSSGLYKCELCEFNSKYFSDLKQHMILKHKRTDSNVCRVCKESFSTNMLLIEHAKLHEEDPYICKYCDYKTVIFENLSQHIADTHFSDHLYWCEQCDVQFSSSSELYLHFQEHSCDEQYLCQFCEHETNDPEDLHSHVVNEHACKLIELSDKYNNGEHGQYSLLSKITFDKCKNFFVCQVCGFRSRLHTNVNRHVAIEHTKIFPHVCDDCGKGFSSMLEYCKHLNSHLSEGIYLCQYCEYSTGQIEDLKIHLDFKHSADLPHKCSDCLMRFGNERELISHLPVHETT

Tests used:
Assay in all cases: affinity purification with mass spectrometry
[1] = target: T1, ZBTB2 with a C-terminal FLAG and HA tag (human (cDNA from Jurkat cells))
[2] = target: T2, ZNF639 with a C-terminal FLAG and HA tag (human (cDNA from Jurkat cells))
[3] = target: T3, ZBTB25 with a C-terminal FLAG and HA tag (human (cDNA from Jurkat cells))
[4] = target: TAR (HIV-1) RNA binding protein 1 (TARBP1) with a C-terminal FLAG and HA tag (human) (UniProt Q13395)

| Molecule | binding [1] | binding [2] | binding [3] | binding [4] |
| --- | --- | --- | --- | --- |
| TAR (HIV-1) RNA binding protein 1 (TARBP1) (from UniProt Q13395 1-1621) | binds | binds | binds | – |
| B1 | binds | binds | – | binds |
| B2 | – | – | binds | binds |
| B3 | – | – | binds | binds |
